Assay [1] deals with PD-1 expressed on the cell surface of engineered 293T cells (UniProt Q15116). In words: flow cytometry; supernatant of transfected 293T cells on 293T-PD-1 cells, wild-type 293T supernatant as control.
For assay [2] the target is unchanged. In words: flow cytometry; supernatant of transfected 293T cells incubated 1 h with 293T cells expressing PD-1.

Protein sequences, listed by entry. Tags and fused reporters are not part of them. Lines headed by an entry give the natural chain unless they say otherwise; changes in a name come on top. Residues count along the entry.
UniProt Q15116, residues 25-288: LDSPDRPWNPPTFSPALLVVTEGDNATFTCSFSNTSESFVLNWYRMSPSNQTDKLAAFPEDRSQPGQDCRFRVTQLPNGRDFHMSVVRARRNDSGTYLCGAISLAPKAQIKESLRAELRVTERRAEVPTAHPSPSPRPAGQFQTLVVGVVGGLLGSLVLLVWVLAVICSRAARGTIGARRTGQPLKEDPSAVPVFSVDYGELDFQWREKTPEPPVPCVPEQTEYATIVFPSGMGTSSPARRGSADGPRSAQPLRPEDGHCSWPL

Results are given in words; binding and its absence hold for the method and conditions named. Some binding calls cover weakened binding; strength is not graded here. Where a sequence is shown, tags or fusion partners need not be part of it.

B1: trap protein labeled with a His-tag (anti-PD-1 scFv fused to a TGF-β-binding sequence of TGF-βRII, produced in transfected 293T cells) (other, not shown: small tags and cut ends)
chain: DIVLTQSPATLSLSPGERATLSCRASKSVSTSGFNYMHWYQQKPGQAPRLLIFLASNLASGVPARFSGSGSGTDFTLTISSLEPEDFAVYYCQHGRELPLTFGQGTKLEIGGGGSGGGGSGGGGSQVQLVQSGAEVKKPGASVKVSCKASGYTFTNYYMYWVRQAPGQGLEWIGGINPSNGGTNFNEKFKNKATMTVDKSTSTAYMELSSLRSEDTAVYYCTRRDYNYDGGFDYWGQGTLVTVSSGGGGSGGGGSTIPPHVQKSVNNDMIVTDNNGAVKFPQLCKFCDVRFSTCDNQKSCMSNCSITSICEKPQEVCVAVWRKNDENITLETVCHDPKLPYHDFILEDAASPKCIMKEKKKPGETFFMCSCSSDECNDNIIFSEEYNTSNPD
notes: Western blot gives 56 kDa; The text says the scFv derives from antibody 5C4; also called bifunctional trap protein; purified trap protein
As to B1, the binding result in assay [1] and in assay [2] was “binds” each time.

For the origin of these results see US20230310601A1 (UNIVERSITY OF SOUTHERN CALIFORNIA, published 2023).
